In article PMC7434891:
No constants are given. Whether binding was seen depends on the method and setting. Binding seen in cells or lysates may run through a third protein. Some results given as binding are weak or reduced against the parent protein; the word gives no strength.

Protein sequences, listed by entry. Tags and fused reporters are not part of them.
UniProt P70365: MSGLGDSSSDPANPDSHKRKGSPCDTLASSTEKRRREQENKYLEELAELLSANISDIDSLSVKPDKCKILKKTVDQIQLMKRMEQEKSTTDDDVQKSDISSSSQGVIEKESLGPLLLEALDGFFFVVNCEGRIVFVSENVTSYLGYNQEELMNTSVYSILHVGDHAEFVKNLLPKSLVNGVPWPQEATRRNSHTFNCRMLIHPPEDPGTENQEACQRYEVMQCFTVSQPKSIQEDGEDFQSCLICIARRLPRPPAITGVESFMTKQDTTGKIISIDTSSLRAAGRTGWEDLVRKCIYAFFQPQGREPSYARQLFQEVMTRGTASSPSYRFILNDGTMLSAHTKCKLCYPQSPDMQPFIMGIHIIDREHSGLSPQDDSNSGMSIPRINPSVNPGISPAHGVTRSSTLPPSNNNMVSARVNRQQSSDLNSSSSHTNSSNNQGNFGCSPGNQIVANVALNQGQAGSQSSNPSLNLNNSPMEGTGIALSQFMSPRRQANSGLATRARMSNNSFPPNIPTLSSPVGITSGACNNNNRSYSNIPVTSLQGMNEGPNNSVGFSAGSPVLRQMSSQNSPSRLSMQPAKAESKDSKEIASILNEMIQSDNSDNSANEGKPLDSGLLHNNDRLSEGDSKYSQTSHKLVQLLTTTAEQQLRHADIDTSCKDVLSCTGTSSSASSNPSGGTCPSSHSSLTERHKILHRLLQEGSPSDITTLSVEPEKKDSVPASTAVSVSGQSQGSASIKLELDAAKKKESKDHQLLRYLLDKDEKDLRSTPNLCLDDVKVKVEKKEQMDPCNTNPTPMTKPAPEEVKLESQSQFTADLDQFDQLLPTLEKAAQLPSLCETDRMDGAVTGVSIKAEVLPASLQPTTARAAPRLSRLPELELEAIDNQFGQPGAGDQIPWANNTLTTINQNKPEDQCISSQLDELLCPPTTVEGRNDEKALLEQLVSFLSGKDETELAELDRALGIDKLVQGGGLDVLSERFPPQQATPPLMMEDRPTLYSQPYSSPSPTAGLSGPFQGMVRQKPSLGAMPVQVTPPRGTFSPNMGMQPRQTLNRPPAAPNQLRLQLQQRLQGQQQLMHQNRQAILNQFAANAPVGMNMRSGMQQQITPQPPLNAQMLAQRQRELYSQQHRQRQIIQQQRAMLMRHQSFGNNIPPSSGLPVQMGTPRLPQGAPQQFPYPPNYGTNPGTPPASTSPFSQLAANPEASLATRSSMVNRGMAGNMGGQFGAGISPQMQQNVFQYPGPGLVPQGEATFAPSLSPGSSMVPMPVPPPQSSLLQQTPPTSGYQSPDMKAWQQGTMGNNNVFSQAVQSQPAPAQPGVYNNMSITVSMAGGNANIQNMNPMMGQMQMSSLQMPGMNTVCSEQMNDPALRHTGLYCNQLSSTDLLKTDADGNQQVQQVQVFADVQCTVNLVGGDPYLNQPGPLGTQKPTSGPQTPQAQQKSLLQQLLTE
UniProt Q61026: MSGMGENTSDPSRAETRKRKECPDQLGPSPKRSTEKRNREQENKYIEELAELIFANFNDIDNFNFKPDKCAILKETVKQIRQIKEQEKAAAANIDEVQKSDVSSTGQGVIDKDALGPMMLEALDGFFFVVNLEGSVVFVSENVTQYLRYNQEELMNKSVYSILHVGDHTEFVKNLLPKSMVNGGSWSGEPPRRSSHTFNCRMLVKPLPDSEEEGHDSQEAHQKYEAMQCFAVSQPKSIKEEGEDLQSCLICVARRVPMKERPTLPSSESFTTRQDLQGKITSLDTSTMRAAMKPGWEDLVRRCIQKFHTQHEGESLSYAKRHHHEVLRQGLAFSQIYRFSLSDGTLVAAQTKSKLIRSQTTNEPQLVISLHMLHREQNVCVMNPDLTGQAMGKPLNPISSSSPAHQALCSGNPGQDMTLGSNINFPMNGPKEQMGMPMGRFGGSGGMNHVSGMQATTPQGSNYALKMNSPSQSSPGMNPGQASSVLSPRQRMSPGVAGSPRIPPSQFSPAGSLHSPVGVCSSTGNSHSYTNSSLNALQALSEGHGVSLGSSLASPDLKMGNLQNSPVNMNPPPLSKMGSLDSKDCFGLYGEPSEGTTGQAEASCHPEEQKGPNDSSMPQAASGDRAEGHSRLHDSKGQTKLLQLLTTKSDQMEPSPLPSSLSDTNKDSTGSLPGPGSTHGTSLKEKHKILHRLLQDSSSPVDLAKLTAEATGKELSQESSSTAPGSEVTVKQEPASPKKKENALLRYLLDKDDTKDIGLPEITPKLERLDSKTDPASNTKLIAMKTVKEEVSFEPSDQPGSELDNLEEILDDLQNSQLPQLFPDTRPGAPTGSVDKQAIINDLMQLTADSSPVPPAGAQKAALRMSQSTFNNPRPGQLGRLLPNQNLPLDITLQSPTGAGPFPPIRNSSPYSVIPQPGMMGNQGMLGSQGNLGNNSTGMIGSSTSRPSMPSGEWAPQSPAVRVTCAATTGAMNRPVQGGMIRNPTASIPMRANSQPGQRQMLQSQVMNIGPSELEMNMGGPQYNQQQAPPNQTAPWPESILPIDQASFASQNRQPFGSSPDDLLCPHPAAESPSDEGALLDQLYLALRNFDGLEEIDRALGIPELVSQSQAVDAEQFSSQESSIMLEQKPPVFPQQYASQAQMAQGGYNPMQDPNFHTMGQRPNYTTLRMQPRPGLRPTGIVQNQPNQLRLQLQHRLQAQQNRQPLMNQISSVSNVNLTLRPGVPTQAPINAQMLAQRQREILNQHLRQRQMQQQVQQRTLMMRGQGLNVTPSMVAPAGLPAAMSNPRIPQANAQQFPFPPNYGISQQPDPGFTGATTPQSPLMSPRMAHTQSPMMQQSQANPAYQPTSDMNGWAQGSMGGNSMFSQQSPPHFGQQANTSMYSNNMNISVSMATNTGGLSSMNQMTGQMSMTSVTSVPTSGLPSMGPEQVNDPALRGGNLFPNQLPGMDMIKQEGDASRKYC
UniProt O95166: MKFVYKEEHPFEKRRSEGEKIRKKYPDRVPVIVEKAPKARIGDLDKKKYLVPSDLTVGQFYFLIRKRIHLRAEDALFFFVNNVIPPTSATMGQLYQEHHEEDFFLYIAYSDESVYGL
UniProt P60520: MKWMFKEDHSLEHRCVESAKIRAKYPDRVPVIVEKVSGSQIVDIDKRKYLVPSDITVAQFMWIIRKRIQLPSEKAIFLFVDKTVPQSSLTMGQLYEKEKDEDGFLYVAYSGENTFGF

Legend:
[1] = target: FLAG-tagged SRC-1 (wild type, mouse) (mouse) (UniProt P70365); assay: co-IP; HEK293T cells transfected with 3xFLAG-SRC-1 or 3xFLAG-TIF2 plasmids for 48 h; lysed in 20 mM HEPES-NaOH pH 7.5, 150 mM NaCl, 1.0% digitonin; anti-FLAG M2 affinity gel overnight at 4 °C; immunoblot of endogenous partners
[2] = target: FLAG-tagged TIF2 (wild type, mouse) (mouse) (UniProt Q61026); assay: as above

binding [1]	binding [2]	Substance
binds	binds	GABARAP (from UniProt O95166 1-117)
binds	binds	GATE16 (from UniProt P60520 1-117)
